The list shows a part of the results.

Protein sequences, listed by entry. Tags and fused reporters are not part of them. Lines headed by an entry give the natural chain unless they say otherwise; changes in a name come on top.
UniProt Q9ULG6: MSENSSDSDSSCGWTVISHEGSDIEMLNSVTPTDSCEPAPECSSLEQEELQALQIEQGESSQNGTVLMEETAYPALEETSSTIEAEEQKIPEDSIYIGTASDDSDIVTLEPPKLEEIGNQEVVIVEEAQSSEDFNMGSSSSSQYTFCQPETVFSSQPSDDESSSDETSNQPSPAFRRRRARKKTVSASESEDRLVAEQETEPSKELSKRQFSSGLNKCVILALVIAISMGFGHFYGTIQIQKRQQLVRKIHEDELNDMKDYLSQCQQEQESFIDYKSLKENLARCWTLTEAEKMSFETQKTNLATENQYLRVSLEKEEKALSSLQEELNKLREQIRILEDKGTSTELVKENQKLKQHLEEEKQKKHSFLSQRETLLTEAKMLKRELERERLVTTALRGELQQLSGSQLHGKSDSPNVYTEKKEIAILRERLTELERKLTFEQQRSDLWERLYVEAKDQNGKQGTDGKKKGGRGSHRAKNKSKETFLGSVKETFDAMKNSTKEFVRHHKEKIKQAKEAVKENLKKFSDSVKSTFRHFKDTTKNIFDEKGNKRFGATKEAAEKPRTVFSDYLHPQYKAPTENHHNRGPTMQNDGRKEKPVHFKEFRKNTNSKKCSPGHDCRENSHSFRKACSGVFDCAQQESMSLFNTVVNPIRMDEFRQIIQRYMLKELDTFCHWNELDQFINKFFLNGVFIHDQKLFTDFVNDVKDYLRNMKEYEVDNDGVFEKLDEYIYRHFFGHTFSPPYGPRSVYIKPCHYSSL
UniProt Q99832: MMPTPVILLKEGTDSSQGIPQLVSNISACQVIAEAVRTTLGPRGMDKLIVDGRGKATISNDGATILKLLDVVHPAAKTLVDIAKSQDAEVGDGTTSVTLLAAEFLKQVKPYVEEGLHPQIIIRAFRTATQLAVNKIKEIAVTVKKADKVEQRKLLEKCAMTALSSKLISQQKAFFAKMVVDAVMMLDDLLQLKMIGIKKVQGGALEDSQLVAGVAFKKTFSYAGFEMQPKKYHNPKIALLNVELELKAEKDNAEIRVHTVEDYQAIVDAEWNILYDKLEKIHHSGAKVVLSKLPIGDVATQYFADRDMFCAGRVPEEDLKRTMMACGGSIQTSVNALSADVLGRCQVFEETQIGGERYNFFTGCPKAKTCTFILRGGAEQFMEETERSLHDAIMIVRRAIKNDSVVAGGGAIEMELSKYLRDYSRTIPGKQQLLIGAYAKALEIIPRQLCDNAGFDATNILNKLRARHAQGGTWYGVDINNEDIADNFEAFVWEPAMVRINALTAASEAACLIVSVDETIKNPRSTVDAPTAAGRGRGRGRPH
UniProt P16152: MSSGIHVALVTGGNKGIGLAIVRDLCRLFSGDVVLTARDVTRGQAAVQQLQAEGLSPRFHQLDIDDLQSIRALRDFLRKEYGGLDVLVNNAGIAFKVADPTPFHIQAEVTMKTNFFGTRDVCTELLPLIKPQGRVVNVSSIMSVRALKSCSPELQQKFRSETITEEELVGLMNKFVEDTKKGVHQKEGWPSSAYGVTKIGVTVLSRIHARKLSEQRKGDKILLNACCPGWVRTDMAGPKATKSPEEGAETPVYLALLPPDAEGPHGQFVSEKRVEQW
UniProt O60826, whole entry, looked up: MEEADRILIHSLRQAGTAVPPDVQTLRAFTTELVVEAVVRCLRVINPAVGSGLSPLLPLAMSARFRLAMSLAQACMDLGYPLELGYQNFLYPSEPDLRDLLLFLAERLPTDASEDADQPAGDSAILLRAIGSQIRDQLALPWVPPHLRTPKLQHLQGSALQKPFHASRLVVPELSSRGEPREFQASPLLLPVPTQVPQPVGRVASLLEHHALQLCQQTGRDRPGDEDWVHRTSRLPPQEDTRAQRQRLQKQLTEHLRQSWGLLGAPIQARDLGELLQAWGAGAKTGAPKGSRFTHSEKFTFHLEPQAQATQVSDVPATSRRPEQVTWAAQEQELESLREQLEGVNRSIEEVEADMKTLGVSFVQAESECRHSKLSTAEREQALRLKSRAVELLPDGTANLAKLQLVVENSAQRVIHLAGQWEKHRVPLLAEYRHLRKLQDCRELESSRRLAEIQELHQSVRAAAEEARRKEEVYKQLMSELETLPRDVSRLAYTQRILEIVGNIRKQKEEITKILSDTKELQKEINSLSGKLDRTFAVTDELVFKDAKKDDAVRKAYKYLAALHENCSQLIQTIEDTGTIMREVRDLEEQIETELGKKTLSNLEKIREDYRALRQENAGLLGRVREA
UniProt P78371: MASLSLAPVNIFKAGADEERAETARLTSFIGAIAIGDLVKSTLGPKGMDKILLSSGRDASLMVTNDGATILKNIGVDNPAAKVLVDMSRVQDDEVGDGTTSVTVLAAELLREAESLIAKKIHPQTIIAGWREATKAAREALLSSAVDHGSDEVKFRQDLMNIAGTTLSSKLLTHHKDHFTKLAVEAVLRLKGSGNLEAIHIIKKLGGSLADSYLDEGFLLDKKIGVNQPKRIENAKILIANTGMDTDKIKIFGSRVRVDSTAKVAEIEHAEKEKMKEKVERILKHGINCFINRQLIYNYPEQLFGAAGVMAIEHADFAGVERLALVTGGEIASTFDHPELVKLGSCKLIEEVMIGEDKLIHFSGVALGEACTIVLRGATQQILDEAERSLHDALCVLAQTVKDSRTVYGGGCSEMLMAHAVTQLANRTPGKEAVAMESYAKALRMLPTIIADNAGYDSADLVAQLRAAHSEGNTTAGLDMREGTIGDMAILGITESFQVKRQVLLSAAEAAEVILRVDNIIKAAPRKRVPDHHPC
UniProt P15529: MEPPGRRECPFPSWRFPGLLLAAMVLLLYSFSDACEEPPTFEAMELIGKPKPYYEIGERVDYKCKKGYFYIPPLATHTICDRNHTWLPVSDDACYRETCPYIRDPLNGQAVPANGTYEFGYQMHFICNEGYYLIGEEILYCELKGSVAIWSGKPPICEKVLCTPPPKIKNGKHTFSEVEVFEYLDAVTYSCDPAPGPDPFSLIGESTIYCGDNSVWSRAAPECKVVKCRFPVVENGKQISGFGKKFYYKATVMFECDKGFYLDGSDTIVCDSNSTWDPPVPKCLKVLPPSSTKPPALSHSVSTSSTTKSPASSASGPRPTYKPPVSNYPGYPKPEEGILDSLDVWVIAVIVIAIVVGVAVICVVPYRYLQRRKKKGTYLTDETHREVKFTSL
UniProt P27701: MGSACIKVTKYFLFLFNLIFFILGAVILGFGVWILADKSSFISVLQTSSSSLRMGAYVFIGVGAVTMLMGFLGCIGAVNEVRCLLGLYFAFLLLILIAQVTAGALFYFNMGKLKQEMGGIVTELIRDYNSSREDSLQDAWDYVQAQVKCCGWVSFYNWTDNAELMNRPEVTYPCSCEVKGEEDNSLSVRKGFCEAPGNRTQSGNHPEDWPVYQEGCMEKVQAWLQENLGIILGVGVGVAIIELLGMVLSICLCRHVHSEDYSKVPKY
UniProt P45973, whole entry, looked up: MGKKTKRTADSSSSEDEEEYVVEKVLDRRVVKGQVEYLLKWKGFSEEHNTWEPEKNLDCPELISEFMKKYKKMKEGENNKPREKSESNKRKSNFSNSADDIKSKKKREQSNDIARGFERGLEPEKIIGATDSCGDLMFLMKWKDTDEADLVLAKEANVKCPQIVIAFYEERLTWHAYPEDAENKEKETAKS
UniProt Q9BV29: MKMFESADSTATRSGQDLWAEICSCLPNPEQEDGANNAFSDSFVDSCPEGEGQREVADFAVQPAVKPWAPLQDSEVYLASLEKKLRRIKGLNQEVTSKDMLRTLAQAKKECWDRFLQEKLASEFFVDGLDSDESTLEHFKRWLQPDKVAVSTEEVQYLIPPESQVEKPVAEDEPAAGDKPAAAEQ
UniProt Q6NZI2: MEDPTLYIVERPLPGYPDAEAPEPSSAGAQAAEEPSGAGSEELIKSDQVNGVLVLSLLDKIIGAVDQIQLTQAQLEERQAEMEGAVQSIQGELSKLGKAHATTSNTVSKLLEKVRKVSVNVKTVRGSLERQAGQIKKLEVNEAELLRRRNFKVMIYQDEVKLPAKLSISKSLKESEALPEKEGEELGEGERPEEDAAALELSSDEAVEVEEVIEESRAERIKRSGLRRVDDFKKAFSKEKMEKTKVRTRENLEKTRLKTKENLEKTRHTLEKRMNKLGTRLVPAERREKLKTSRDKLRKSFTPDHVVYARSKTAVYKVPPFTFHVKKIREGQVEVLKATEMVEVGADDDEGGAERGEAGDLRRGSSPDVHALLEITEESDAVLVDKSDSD
UniProt Q6PII3: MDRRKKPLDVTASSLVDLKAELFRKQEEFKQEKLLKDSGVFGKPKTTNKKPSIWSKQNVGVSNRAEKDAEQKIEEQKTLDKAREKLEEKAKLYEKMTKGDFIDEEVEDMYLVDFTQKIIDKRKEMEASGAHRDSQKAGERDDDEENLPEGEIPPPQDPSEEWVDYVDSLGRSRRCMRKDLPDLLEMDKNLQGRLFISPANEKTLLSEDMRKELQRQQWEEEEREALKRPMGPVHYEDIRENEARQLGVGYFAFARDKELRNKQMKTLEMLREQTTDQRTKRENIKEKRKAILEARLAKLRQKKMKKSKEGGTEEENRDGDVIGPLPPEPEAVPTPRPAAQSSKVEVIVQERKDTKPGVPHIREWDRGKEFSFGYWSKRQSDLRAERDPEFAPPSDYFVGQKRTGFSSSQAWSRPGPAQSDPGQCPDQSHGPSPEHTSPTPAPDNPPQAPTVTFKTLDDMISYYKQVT
UniProt Q6PK04: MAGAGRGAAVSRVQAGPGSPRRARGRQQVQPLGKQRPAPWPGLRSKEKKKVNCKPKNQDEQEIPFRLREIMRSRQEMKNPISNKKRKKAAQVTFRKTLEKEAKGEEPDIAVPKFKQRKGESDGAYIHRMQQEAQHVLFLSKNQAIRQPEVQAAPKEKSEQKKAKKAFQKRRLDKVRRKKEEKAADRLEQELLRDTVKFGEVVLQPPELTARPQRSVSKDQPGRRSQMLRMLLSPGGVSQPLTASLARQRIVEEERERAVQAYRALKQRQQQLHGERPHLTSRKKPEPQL
UniProt P30260, whole entry, looked up: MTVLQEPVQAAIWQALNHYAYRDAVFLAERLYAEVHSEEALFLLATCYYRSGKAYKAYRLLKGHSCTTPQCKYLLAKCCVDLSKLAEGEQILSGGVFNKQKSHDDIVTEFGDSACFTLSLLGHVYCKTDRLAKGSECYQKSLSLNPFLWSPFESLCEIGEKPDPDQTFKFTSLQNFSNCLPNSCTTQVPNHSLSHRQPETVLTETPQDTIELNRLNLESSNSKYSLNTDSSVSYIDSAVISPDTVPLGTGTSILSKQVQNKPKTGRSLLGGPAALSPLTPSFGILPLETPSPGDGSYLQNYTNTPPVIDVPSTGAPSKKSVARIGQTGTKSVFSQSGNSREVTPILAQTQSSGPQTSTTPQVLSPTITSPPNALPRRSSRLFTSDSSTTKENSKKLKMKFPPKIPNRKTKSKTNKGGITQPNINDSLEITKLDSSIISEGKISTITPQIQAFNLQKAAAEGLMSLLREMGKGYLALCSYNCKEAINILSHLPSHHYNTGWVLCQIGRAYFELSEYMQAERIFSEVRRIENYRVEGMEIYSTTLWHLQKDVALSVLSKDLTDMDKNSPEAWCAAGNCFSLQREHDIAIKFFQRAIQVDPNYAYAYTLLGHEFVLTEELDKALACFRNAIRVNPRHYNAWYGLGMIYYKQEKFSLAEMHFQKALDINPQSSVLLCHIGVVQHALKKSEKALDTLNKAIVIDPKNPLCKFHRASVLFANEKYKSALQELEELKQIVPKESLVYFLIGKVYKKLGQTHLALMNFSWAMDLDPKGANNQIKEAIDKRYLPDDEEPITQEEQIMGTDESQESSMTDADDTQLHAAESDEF
UniProt O14618: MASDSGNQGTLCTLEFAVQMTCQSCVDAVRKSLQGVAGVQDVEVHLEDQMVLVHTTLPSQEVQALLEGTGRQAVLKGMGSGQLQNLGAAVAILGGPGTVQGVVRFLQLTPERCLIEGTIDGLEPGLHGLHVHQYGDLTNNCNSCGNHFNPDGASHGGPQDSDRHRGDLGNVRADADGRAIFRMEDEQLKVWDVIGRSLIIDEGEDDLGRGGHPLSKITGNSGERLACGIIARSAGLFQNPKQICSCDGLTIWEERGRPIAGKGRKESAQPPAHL
UniProt P30304: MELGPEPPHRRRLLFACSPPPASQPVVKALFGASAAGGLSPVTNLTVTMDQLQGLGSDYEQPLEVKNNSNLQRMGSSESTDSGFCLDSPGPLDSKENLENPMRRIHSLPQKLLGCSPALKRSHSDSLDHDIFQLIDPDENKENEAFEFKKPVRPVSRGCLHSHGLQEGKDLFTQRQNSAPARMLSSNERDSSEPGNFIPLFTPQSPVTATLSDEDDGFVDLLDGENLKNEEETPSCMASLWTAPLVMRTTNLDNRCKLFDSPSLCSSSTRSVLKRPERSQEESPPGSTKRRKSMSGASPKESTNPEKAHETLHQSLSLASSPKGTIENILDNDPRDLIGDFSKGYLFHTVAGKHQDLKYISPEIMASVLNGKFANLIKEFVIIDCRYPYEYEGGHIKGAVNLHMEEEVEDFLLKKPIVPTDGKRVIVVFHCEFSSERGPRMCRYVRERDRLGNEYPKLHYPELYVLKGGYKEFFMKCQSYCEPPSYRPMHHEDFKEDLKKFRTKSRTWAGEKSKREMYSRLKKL

Compound in the test: C1=CC=C(C=C1)[C@H](COC2=CC3=C(C=C2)NC(=O)N3)NC(=O)C4=CC=CN(C4=O)CC5=CC(=C(C=C5)F)F
Description: log2 fold change, soluble protein after heating vs DMSO (PISA); higher = thermal stabilisation; K562 cells, 10 uM, 30 min; active = over 0.2 and 3.5 SD of the protein, either way, in both replicates (recomputed). An outline of the steps: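 K562 cells at 2×10^6 cells/mL were treated with 10 μM compound for 30 min. Aliquots were heated for 3 min across 48°C-58°C, pooled, and extracted in PBS with 0.5% NP-40 at 4°C; soluble protein was the supernatant after 21,000xg for 90 min. Soluble protein was quantified by TMTpro 16plex LC-MS/MS with channel sums equalised, and reported as log2 fold change in thermal stability against DMSO controls, with values from duplicates.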
In the case of CCPG1 isoform 5 (UniProt Q9ULG6), the log2 fold change is inactive: 0.073.

As for CCT7 (UniProt Q99832), the log2 fold change is inactive: -0.006.

On to CARS isoform 3 (UniProt P49589), for which the log2 fold change was inactive: -0.014.

CCDC86 (UniProt Q9H6F5): the log2 fold change is inactive: 0.094.

As to CBR1 (UniProt P16152), the log2 fold change was inactive: -0.009.

Turning to CCDC22 (UniProt O60826), the log2 fold change is inactive: -0.04.

Take CCT2 (UniProt P78371): the log2 fold change was inactive: -0.005.

CD46 isoform 2 (UniProt P15529): the log2 fold change is inactive: 0.004.

In the case of CD82 (UniProt P27701), the log2 fold change was inactive: 0.142.

On to CBX5 (UniProt P45973), for which the log2 fold change is inactive: -0.001.

With CDC37 (UniProt K7EKQ2), the log2 fold change was inactive: -0.03.

On to CCDC32 isoform 2 (UniProt Q9BV29), for which the log2 fold change was inactive: -0.014.

As to CAVIN1 (UniProt Q6NZI2), the log2 fold change was inactive: 0.017.

In the case of CCDC174 (UniProt Q6PII3), the log2 fold change was inactive: 0.

As to CCDC137 (UniProt Q6PK04), the log2 fold change was inactive: 0.206.

Consider CDC27 isoform 2 (UniProt P30260), for which the log2 fold change is inactive: 0.043.

CCS (UniProt O14618): the log2 fold change is inactive: -0.078.

Consider CBFA2T2 isoform 4 (UniProt O43439), for which the log2 fold change was inactive: -0.063.

In the case of CDC25A (UniProt P30304), the log2 fold change was inactive: 0.041.

On to CASTOR2 (UniProt A6NHX0), for which the log2 fold change is inactive: 0.056.

In the case of CASP7 isoform 3 (UniProt P55210), the log2 fold change is inactive: 0.12.

With CD53 (UniProt P19397), the log2 fold change was inactive: -0.05.

The values above are taken from the supplement of paper PMC10849652.
